# Values of other authors as cited in patent publication US8569335B2, “Compounds derived from taurine, process of their preparation and pharmaceutical compositions containing these” (EMS S.A., priority 2008, dated 2013).
# Details: oral administration; literature (Merck Index); cited from earlier work
structure (smiles),measurement,value
"COc1ccc2cc([C@H](C)C(=O)O)ccc2c1 [naproxen, reference compound]",LD50,"1,234 mg/Kg"
